Source: patent US8809498B2 (priority 2008, dated 2014)

Assay: general procedure: Fmoc solid-phase peptide synthesis; 2-Cl-tritylchloride resin
Details: whole synthesis; for isolated yield: total yield after purification, scale of the general procedure 0.1 mmol
[1] = TFA salt (Lys, Orn, Dab, Arg peptides)

| Substance | isolated mass (TFA salt) [mg] | isolated yield (TFA salt) [%] | isolated mass [1] [mg] | isolated yield [1] |
| --- | --- | --- | --- | --- |
| (N-Iva-Phe)-Nle-Sta-Lys-Sta | 32 | 34.8 |  |  |
| (N-Iva-Val)-DfpGly-Sta-Ala-Sta |  |  | 28.1 | ˜39.0% |
| (N-Iva-Val)-TfeGly-Sta-Ala-Sta |  |  | 31.0 | 42.7% |
